From PubChem BioAssay AID493014 (National Center for Advancing Translational Sciences (NCATS), 2011)
This is one part of the list. These are further read-outs of the screen, such as a control signal, another cell line or another target. No call is given for them. Most of these compounds were active or inconclusive in the main read-out, so they are no random draw. Potencies come from curve fits of mixed quality, noted in brackets.

Test: qHTS Assay to Find Inhibitors of Chronic Active B-Cell Receptor Signaling
Conditions: ABC-DLBCL IkBa-CBG/CBR reporter, luminescence ratio (green luciferase fused to IkBa over red control in TMD8 lymphoma cells), 4 h
Summary of the method: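 TMD8 human ABC-DLBCL cells with doxycycline-inducible IκBα–green luciferase fusion and unfused red luciferase, in 0.5% FBS medium; compounds up to 46 uM, 4 h at 37C. Green/red luminescence ratio, filter-overlap corrected, fitted to concentration-response curves.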

[1] = measured here: CBR red luminescence, cell number
[2] = measured here: IkBa-CBG green luminescence

Compound	AC50 [1]	AC50 [2]
CCn1nnc(NC(=S)NC(=O)c2ccc(-c3cccc(Cl)c3)o2)n1	3.55 µM [rising, single point]	3.98 µM [falling, single point]
O=C(NC(=O)N1CCN(c2cccc(Cl)c2)CC1)c1ccc(Cl)cc1	12.6 µM [falling, partial curve, poor fit]	
CS(=O)(=O)N(CC(=O)Nc1ccccc1Sc1ccccc1)c1cccc(Br)c1	4.11 µM [rising, single point]	
Cc1ccc(C2=N/C(=C\c3ccc(F)cc3)C(=O)N2)cc1	0.517 µM [rising, full curve, poor fit]	
O=C1NC2(CCCCC2)N=C1c1ccc(Br)cc1	5.17 µM [rising, single point]	
CC1=NN(c2ccc(Cl)cc2)C(=O)C1C(c1cccc(O)c1)c1c(C)[nH]n(-c2ccc(Cl)cc2)c1=O (stereo unspecified)	29.1 µM [falling, single point]	25.9 µM [rising, partial curve, poor fit]
Cc1ccc(S(=O)(=O)/C(C#N)=C/c2c(N3CCC(C(N)=O)CC3)nc3c(C)cccn3c2=O)cc1	7.31 µM [falling, partial curve, poor fit]	
Cc1ccsc1/C=N/NC(=O)CC(=O)NCC(C)C	12.6 µM [rising, partial curve, poor fit]	
CC(C)Oc1ccc(C(=O)Nc2nc3ccccc3[nH]2)cc1	3.55 µM [falling, full curve]	
CSc1ccc(CCNC(=O)c2cc(-c3ccccc3)c(N3CCOCC3)s2)cc1	5.62 µM [rising, single point]	
O=C1CN(c2nc(-c3cccs3)nc3sc4c(c23)CCCC4)CCN1	35.5 µM [falling, single point]	
Cc1cccc(-n2cc(-c3ccccc3)c3c(NC(C)C)ncnc32)c1	10 µM [rising, partial curve]	
Cc1ccc(C(=O)c2c(C)oc3c2C(=O)C(=O)c2ccccc2-3)cc1	35.5 µM [falling, single point]	
COc1cc2c(cc1OC)CN(S(=O)(=O)c1ccccc1F)CC2	35.5 µM [falling, single point]	
CCc1cccc(CC)c1NC(=O)COC(=O)/C(C#N)=C/c1ccc(OC)cc1	25.9 µM [falling, partial curve, poor fit]	
O=C(O)CCCN1C(=O)/C(=C\c2ccccc2OCc2ccccc2)SC1=S	1.12 µM [falling, partial curve]	2.82 µM [falling, partial curve, poor fit]
O=S(=O)(Nc1nc2ccccc2nc1NCc1ccco1)c1ccc(Cl)cc1	13 µM [rising, partial curve, poor fit]	
CCCN(CCC)S(=O)(=O)c1ccc(Cl)c([N+](=O)[O-])c1	11.2 µM [falling, partial curve]	15.8 µM [rising, partial curve, poor fit]
Cc1ccccc1C(=O)Nc1cccc(NC(=S)NC(=O)c2cccs2)c1	0.282 µM [falling, full curve, poor fit]	12.6 µM [rising, partial curve, poor fit]
COC(=O)c1c(NC(=O)C(Cl)Cl)sc2c1C(C(=O)OC)CC2 (stereo unspecified)	3.98 µM [rising, partial curve, poor fit]	

Compound	AC50 [1]	AC50 [2]
CC(C)(C)c1cc(OS(C)(=O)=O)ccc1O	3.16 µM [rising, full curve, poor fit]	
Nc1cc(Cl)ccc1C(=O)OCC(=O)NC1CCCCCCC1	32.6 µM [rising, single point]	16.4 µM [falling, partial curve, poor fit]
COc1ccc(-c2c(C)cc3oc(=O)cc(-c4ccccc4)c3c2C)cc1C=O	5.8 µM [rising, partial curve, poor fit]	
O=C(Nc1nnc(SCc2c(Cl)cccc2Cl)s1)C1CCCO1 (stereo unspecified)	12.6 µM [rising, single point]	
CCOC(=O)C1=C(c2ccccc2)N=c2s/c(=C\c3cccc(O)c3)c(=O)n2C1c1cccs1 (stereo unspecified)	3.98 µM [rising, partial curve, poor fit]	
O=C(Nc1cccnc1)c1cc(-c2ccco2)on1	7.94 µM [falling, partial curve, poor fit]	
COc1ccc(OCCCC(=O)Nc2cccc(C(C)=O)c2)cc1	20.6 µM [falling, partial curve]	
COc1ccc(/C=C2\SC(=O)N(CC(=O)NCCC(C)C)C2=O)cc1OC	7.08 µM [rising, full curve, poor fit]	
CCOC(=O)c1[nH]c(C)c(C(=O)OCC(=O)N2CCCCC2C)c1C (stereo unspecified)	0.731 µM [falling, full curve, poor fit]	
CCOC(=O)c1c(C)oc2c1c1c(c3ccccc32)OCN(CCCC(=O)O)C1	0.282 µM [rising, full curve, poor fit]	
N#Cc1ccccc1OCC(=O)NC(=O)NCc1ccccc1	6.31 µM [falling, partial curve]	
CCOC(=O)N1CCN(C(=O)c2nn(C)c3c2CSc2ccccc2-3)CC1	0.355 µM [rising, full curve, poor fit]	
Cc1noc(C)c1C(=O)OCC(=O)Nc1cccc(S(=O)(=O)N(C)C)c1	9.2 µM [falling, partial curve]	
O=C(N/N=C/c1ccc[nH]1)c1c[nH]c2ccccc12	2.51 µM [falling, partial curve]	
O=C1C(Nc2ccccc2)=CC(c2ccc(O)cc2)N1c1ccccc1 (stereo unspecified)	22.4 µM [falling, single point]	
CCC(NC(=S)NC1CCCCC1)c1ccc(C(C)C)cc1 (stereo unspecified)	28.2 µM [falling, single point]	
O=C(CCC(=O)OCc1ccc(C(=O)Oc2ccc(Cl)cc2)cc1)Nc1ccccc1	29.1 µM [rising, single point]	
O=C(Nc1cccc2cccnc12)c1ccc(F)cc1	8.91 µM [falling, partial curve]	
CN(C)CCNC(=O)c1ccc2c(c1)NC(=O)c1ccccc1S2	8.91 µM [falling, partial curve, poor fit]	
O=C(COc1ccc(S(=O)(=O)NC2CCCCC2)cc1)Nc1ccc2c(c1)OCCO2	22.4 µM [falling, single point]	

Compound	AC50 [1]	AC50 [2]
Cc1onc(CO)c1C(=O)Nc1nccs1	3.98 µM [falling, partial curve]	11.2 µM [rising, partial curve, poor fit]
COc1cc(C2C(C#N)=C(N)OC3=C2C(=O)CC(C)(C)C3)cc([N+](=O)[O-])c1O (stereo unspecified)	2.82 µM [falling, partial curve, poor fit]	
CSc1ccccc1C(=O)Nc1ccc(C)c(C)c1	29.1 µM [falling, single point]	
O=C(Cc1ccccc1)N(Cc1cccnc1)c1nc2ccc(F)cc2s1	11.2 µM [falling, single point]	
CCN(CC(=O)NC(=O)NCc1ccccc1)Cc1nc2ccccc2c(=O)[nH]1	14.1 µM [falling, single point]	
CCC(C)N1C(=O)S/C(=C/c2ccc(N3CCOCC3)cc2C)C1=O (stereo unspecified)	3.26 µM [rising, full curve, poor fit]	
CCCONC(=O)Nc1ccccc1[N+](=O)[O-]	18.4 µM [rising, partial curve, poor fit]	
O=[N+]([O-])c1cccc(S(=O)(=O)Nc2ccc(Cc3ccncc3)cc2)c1	1.26 µM [falling, full curve, poor fit]	
COC(C(=O)Nc1ccnn1C1CCN(Cc2ccccn2)CC1)c1ccccc1 (stereo unspecified)	1 µM [falling, partial curve]	
CC(C)Sc1nc(SCC(=O)O)c2c3c(sc2n1)COC(C)(C)C3	1.26 µM [falling, full curve, poor fit]	
Cc1cc(C(=O)N[C@H](c2ccccc2)[C@@]2(C)C[C@@H]2[C@@H](C)C(=O)Nc2ccc3ccccc3c2)n(C)n1	2.06 µM [rising, partial curve, poor fit]	
CC(=O)OCC(=O)[C@@]12OC(C)(C)O[C@@H]1C[C@H]1[C@@H]3C[C@H](F)C4=CC(=O)C=C[C@]4(C)[C@@]3(F)[C@@H](O)C[C@@]12C		0.103 µM [falling, partial curve, poor fit]
N=c1c2c(-c3ccccc3)c(-c3ccccc3)n(Cc3ccco3)c2ncn1Cc1ccccc1	23.1 µM [falling, partial curve, poor fit]	
COc1ccc(/C=C\c2cc(OC)c(OC)cc2CC[N+](C)(C)C)cc1OC	35.5 µM [rising, single point]	
COC(=O)C1=CO[C@@H](C)[C@H]2CN3CCc4c([nH]c5ccccc45)[C@@H]3C[C@H]12	25.9 µM [falling, single point]	
Cc1c(C)n(C(=O)CSc2nccn2C)c2ccccc12	17.8 µM [falling, single point]	
Cc1cccc(C(=O)N2c3ccccc3C(=O)OC2c2ccc3c(c2)OCO3)c1 (stereo unspecified)	3.55 µM [falling, full curve]	
Cc1ccc(/C=C/C(=O)OCC(=O)N2CC(=O)Nc3ccccc32)o1	17.8 µM [rising, partial curve, poor fit]	
O=C(N/N=C/c1c[nH]c2ccc(Br)cc12)c1ccn(Cc2ccc(Cl)cc2)n1	22.4 µM [falling, single point]	
